From patent US20150132747A1, “Treatment of Neurodegeneration and Neuroinflammation” (BIOGEN IDEC MA INC., priority 2009, published 2015)
Where a name gives a salt, the structure may show the parent alone. At least one compound was matched to its structure with a doubt left.

What was measured:
Type in all cases: cell-based
[1] = tested on: human spinal cord astrocytes; assay: Glutathione, metabolic activity and viability of cultured human spinal cord astrocytes; settings: 24 hr MMF titration
Description: Primary cultures of human spinal cord astrocytes were treated for 24 hr with a titration of MMF or DMSO as a diluent control. Following 24 hr incubation with compound, cells were washed 1× with growth media and incubated with the cell-permeant substrate monochlorobimane. When bound to glutathione this substrate increases fluorescence. […] FIG. 6A. Similar MMF treated cells were also incubated with the cell permeant substrate resazurin, which increases fluorescence upon reduction to resorufin by cellular redox mechanisms and is used as a measure of cellular metabolic activity (CellTiter-Blue assay). […] FIG. 6B. To ensure the increases in glutathione and metabolic activity were not simply due to cellular proliferation in response to MMF treatment, parallel dishes of cells were incubated with calcein AM. Cellular esterases cleave this molecule to generate a fluorescent metabolite, which provides a measure of cell viability and relative total cell numbers. […] FIG. 6C.

[2] = tested on: human spinal cord astrocytes; assay: H2O2-induced Ca++ mobilization in human spinal cord astrocytes (Calcium4 dye)
Description: In another experiment, primary cultures of human spinal cord astrocytes were treated for 24 hr with a titration of MMF or DMSO as a diluent control. Following 24 hr incubation with compound, cells were washed 1× with HBSS and incubated with Calcium4 (Molecular Devices) loading dye. This dye permeates into cells and increases fluorescence upon binding of free intracellular Ca^++. Cells were then challenged with 50 mM H2O2 and monitored for changes in fluorescence. […] FIG. 7C.

[3] = tested on: human spinal cord astrocytes; assay: H2O2 challenge of human spinal cord astrocytes: viability, metabolism, ATP; settings: 24 hr MMF, 500 mM H2O2 two hours, 24 hour recovery
Description: In another experiment, primary cultures of human spinal cord astrocytes were treated for 24 hr with a titration of MMF or DMSO as a diluent control. Following 24 hr incubation with compound, cells were washed 1× with HBSS and challenged with […] H2O2 for two hours, then washed in normal growth media, then incubated for an additional 24 hours.

Nrf2 [4] = assay: Nrf2 Western blotting, primary rat astrocytes; settings: total cell lysates, GAPDH control, FIG. 9
Description: (§1) Total cell lysates were prepared from the astrocyte cultures treated as indicated above. Nrf2 was detected by Western blotting. GAPDH was included as a housekeeping protein control.

Nrf2 [5] = assay: Nrf2 Western blotting, primary human astrocytes; settings: total cell lysates, GAPDH control, FIG. 9
Description: as §1

COC(=O)/C=C/C(=O)O [MMF, monomethyl fumarate]
cellular glutathione levels (monochlorobimane) ([1]; FIG. 6A): clear concentration-dependent increase | cellular metabolic activity (resazurin reduction, CellTiter-Blue) ([1]; FIG. 6B): clear MMF concentration-dependent increase | accumulation of Ca++ (change in fluorescence over baseline) ([2]; 30 mM MMF, 50 mM H2O2, compared to no H2O2 control, FIG. 7B): reduced accumulation of Ca^++ to background levels | mobilization of intracellular Ca++ after H2O2 challenge ([2]; 24 hr MMF titration, 50 mM H2O2, FIG. 7A): reduced mobilization of intracellular Ca++ in a dose-dependent fashion | loss of cell viability after H2O2 (calcein AM) ([3]; FIG. 8A): attenuated by MMF in a concentration-dependent manner | cellular ATP levels after H2O2 ([3]; FIG. 8C): somewhat more modest MMF-dependent protective effects | levels of Nrf2 (Western blotting), primary rat astrocytes (Nrf2 [4]): increase levels of Nrf2 | levels of Nrf2 (Western blotting), primary human astrocytes (Nrf2 [5]): increase levels of Nrf2
